Experimental findings from paper doi:10.1101/2021.12.23.473985 are described below.

These are yes or no findings as the source states them, for the method shown.

The experiment concerns the target cytochrome b561 (CybB) from E. coli, superoxide:quinone oxidoreductase (E. coli) (UniProt P0ABE5). Kind of experiment: SEC. A general note: Size exclusion chromatography separates by hydrodynamic size, large species first.

B1: cytochrome b561 (CybB) from E. coli, superoxide:quinone oxidoreductase (enzyme, UniProt P0ABE5 1-176)
chain: MENKYSRLQISIHWLVFLLVIAAYCAMEFRGFFPRSDRPLINMIHVSCGISILVLMVVRLLLRLKYPTPPIIPKPKPMMTGLAHLGHLVIYLLFIALPVIGLVMMYNRGNPWFAFGLTMPYASEANFERVDSLKSWHETLANLGYFVIGLHAAAALAHHYFWKDNTLLRMMPRKRS
In the case of B1, the binding result was “no binding”.
